According to paper PMC10713436:
Results are given in words; binding and its absence hold for the method and conditions named. In cells and extracts the contact can be indirect. Some binding calls cover weakened binding; strength is not graded here. Tags and fused reporters may be left off the sequences shown.

Amino acid sequences for entries named in this document (tags omitted).
UniProt Q06609: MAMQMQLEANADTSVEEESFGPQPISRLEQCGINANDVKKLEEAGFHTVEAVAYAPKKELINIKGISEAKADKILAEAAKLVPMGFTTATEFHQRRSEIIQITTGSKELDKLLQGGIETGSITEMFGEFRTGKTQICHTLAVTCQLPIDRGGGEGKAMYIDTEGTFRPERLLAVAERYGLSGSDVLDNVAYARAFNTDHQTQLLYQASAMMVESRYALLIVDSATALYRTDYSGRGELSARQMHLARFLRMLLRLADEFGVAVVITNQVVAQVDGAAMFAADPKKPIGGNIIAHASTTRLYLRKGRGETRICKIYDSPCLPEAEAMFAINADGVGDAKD

Target: RAD51 (endogenous, U2OS RAD52-GFP cells) (human (endogenous in U2OS)) (UniProt Q06609)
Assay: proximity ligation; U2OS RAD52-GFP cells, 200 nM camptothecin 1 h then 5 h release, CSK pre-extraction, fixed with 2% PFA; primary antibodies anti-RAD51 and anti-GFP, Duolink; controls: single primary antibody, siRAD51, siRAD52

B1: RAD52-GFP (protein, UniProt P43351 1-418)
chain: MSGTEEAILGGRDSHPAAGGGSVLCFGQCQYTAEEYQAIQKALRQRLGPEYISSRMAGGGQKVCYIEGHRVINLANEMFGYNGWAHSITQQNVDFVDLNNGKFYVGVCAFVRVQLKDGSYHEDVGYGVSEGLKSKALSLEKARKEAVTDGLKRALRSFGNALGNCILDKDYLRSLNKLPRQLPLEVDLTKAKRQDLEPSVEEARYNSCRPNMALGHPQLQQVTSPSRPSHAVIPADQDCSSRSLSSSAVESEATHQRKLRQKQLQQQFRERMEKQQVRVSTPSAEKSEAAPPAPPVTHSTPVTVSEPLLEKDFLAGVTQELIKTLEDNSEKWAVTPDAGDGVVKPSSRADPAQTSDTLALNNQMVTQNRTPHSVCHQKPQAKSGSWDLQTYSADQRTTGNWESHRKSQDMKKRKYDPS
binding: binds
